# Measurements reported in PMC7205388, “Per-6-Thiolated Cyclodextrins: A Novel Type of Permeation Enhancing Excipients for BCS Class IV Drugs” (ACS Applied Materials & Interfaces, 2020).
# Test: In vivo oral bioavailability / pharmacokinetics of FUR in rats
# Set-up: species or system Sprague-Dawley rats
# Details: rat
# [1] = Sprague-Dawley, plasma, po, 30 mg/kg
compound,measurement,setting,value
"NS(=O)(=O)c1cc(C(=O)O)c(NCc2ccco2)cc1Cl [FUR, furosemide]",AUC,"Sprague-Dawley, plasma, iv, 30 mg/kg",801 µg·h/mL
same,Cmax,[1],3870 ng/mL
same,Tmax,[1],2 h
same,AUC(0-t),"Sprague-Dawley, plasma, po, 30 mg/kg, read-out: AUC0–24",32.1 µg·h/mL
same,Cl/F,"oral, 30 mg FUR/kg",0.75 (mg/kg)/(μg/mL)/h
same,Vd/F,"oral, 30 mg FUR/kg",9.11 (mg/kg)/(μg/mL)
